Taken from: PubChem BioAssay AID504784 (Drosophila RNAi Screening Center, 2011)

Purpose: 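Fly genes whose silencing alters how much lipid cells keep in droplets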 (primary screen)
System: Drosophila Kc167 embryonic cells
Reagent: long dsRNA against Drosophila genes, about 250 ng dsRNA per well
Duration: 4 days
Challenge: cells fed 400 µM oleic acid bound to BSA
Read-out: 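Cells imaged and segmented; ratio of lipid droplet area to nuclear area, log-transformed, then normalised as a B-score over the screen; higher means more stored lipid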
Direction: droplet/nuclear area B-score: higher = more stored lipid (overstorage)
In all, the deposit lists about 17,000 reagents; below is an unselected part of those that have a named target and a result. 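Each column is one replicate's B-score; the combined score over replicates was not deposited, so single values may mislead.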

gene | amplicon | droplet/nuclear area B-score, replicate 1 | droplet/nuclear area B-score, replicate 2 | droplet/nuclear area B-score, replicate 3
CG14205 | DRSC19560 | -0.714 | 0.758 | –
Ir7g (Ionotropic receptor 7g) | DRSC18008 | 1.41 | 0.345 | –
Or59b (Odorant receptor 59b) | DRSC04632 | 0.0871 | -1.01 | –
CG43737 | DRSC19609 | 3.99 | -5.09 | –
cv (crossveinless) | DRSC17833 | -0.0472 | 4.19 | –
CG31441 | DRSC15723 | 1.01 | -0.387 | –
Hsp27 (Heat shock protein 27) | DRSC11190 | -0.124 | – | –
THG (tRNA-histidine guanylyltransferase) | DRSC01896 | -1.39 | -1.97 | –
CG13058 | DRSC09941 | -0.29 | -0.0538 | –
CG30398 | DRSC03891 | 0.306 | 0.189 | –
CG5853 | DRSC01103 | -0.982 | -0.177 | –
CG5853 | DRSC02906 | 0.08 | -0.966 | –
Der-1 (Derlin-1) | DRSC00301 | -1.17 | -1.55 | –
hep (hemipterous) | DRSC19839 | -0.00192 | 0.029 | -1.48
hep (hemipterous) | DRSC20337 | 0.261 | 0.265 | -2.15
Rcd4 (Reduction in Cnn dots 4) | DRSC02597 | 0.0383 | 0.00713 | –
emp (epithelial membrane protein) | DRSC04019 | 2.12 | -1.48 | –
emp (epithelial membrane protein) | DRSC04683 | 0.71 | 0.847 | –
Cpr76Bb (Cuticular protein 76Bb) | DRSC11061 | 1.98 | -0.1 | –
Cpr76Bb (Cuticular protein 76Bb) | DRSC22870 | -0.525 | -0.438 | –
BBS8 (Bardet-Biedl syndrome 8) | DRSC00360 | 0.658 | 1.76 | –
Syx1A (Syntaxin 1A) | DRSC15359 | 0.137 | 0.969 | –
Syx1A (Syntaxin 1A) | DRSC21554 | -0.866 | 0.383 | –
Indy (I'm not dead yet) | DRSC10393 | -1.42 | 0.319 | -0.0267
DNAlig3 (DNA ligase 3) | DRSC15201 | -0.751 | 1.59 | –
CG6126 | DRSC15971 | 2.28 | -1.7 | –
Atac1 (Ada2a-containing complex component 1) | DRSC03155 | -0.122 | -0.0153 | –
CG10674 | DRSC09775 | -0.108 | – | –
Pka-R1 (Protein kinase, cAMP-dependent, regulatory subunit type 1) | DRSC11674 | -1.66 | -1.32 | -2.8
Pka-R1 (Protein kinase, cAMP-dependent, regulatory subunit type 1) | DRSC11875 | -1.84 | -1.79 | -0.165
CG13872 | DRSC06431 | 0.497 | 0.463 | –
Tengl3 (Testis EndoG-Like 3) | DRSC22288 | -0.561 | 0.314 | –
Mtmr6 (Myotubularin related protein 6) | DRSC04046 | -2.83 | -0.0545 | –
CG31974 | DRSC00522 | 2.04 | -1.03 | –
MED25 (Mediator complex subunit 25) | DRSC14483 | 0.973 | 0.483 | –
MED25 (Mediator complex subunit 25) | DRSC22981 | 2.14 | 2.42 | –
dj-1beta | DRSC14599 | -1.2 | 1.12 | –
CG14383 | DRSC14841 | 2.75 | 0.0189 | –
Ance-2 | DRSC02539 | -0.18 | 3.44 | –
wwk (white walker) | DRSC01941 | 3.35 | -0.498 | –
ci (cubitus interruptus) | DRSC17172 | 0.803 | 0.276 | –
CG10479 | DRSC09733 | -0.145 | -2.08 | –
CG43773 | DRSC00287 | 0.899 | 4.8 | –
CG43773 | DRSC00288 | -0.0571 | -0.185 | –
CG5139 | DRSC00681 | -0.0302 | 1.59 | –
CG13408 | DRSC13534 | 3.11 | -0.655 | –
CG13408 | DRSC14584 | -0.909 | 0.215 | –
fred (friend of echinoid) | DRSC00349 | 0.0117 | 0.473 | –
fred (friend of echinoid) | DRSC00599 | -1.49 | -1.61 | 0.0752
fred (friend of echinoid) | DRSC00601 | -0.334 | -0.492 | –
fred (friend of echinoid) | DRSC00602 | 0.819 | 1.8 | –
fred (friend of echinoid) | DRSC21906 | 2.43 | 2.39 | –
yellow-e2 | DRSC15169 | -0.285 | -2.28 | –
CG1288 | DRSC12538 | -0.871 | -0.808 | –
Tsp42Ee (Tetraspanin 42Ee) | DRSC05947 | 0.422 | -2.98 | –
sls (sallimus) | DRSC08528 | 0.0354 | -0.46 | –
sls (sallimus) | DRSC08540 | 0.389 | -0.483 | –
sls (sallimus) | DRSC08670 | 0.828 | 1.41 | –

An excerpt from above, reduced to “droplet/nuclear area B-score, replicate 1”.
wwk (white walker) [DRSC01941]	3.35
ci (cubitus interruptus) [DRSC17172]	0.803
CG10479 [DRSC09733]	-0.145
CG43773 [DRSC00287]	0.899
